Values from PubChem BioAssay AID743121 (NCATS, 2013).
This is a random part of about 26,000 reagents tested. In the full data, 167 (0.63%) were called active. 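Calls are per gene from RSA p-values that are not deposited; an individual active-marked siRNA can sensitise only weakly.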 Unmarked entries are inactive. The numbers tell different reagents against one gene apart. Further read-outs or replicates are left out here.

Assay: 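Knock-downs that sensitise breast cancer cells to camptothecin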 (primary screen)
Cells: MDA-MB-231 cells, a human breast cancer line
Knock-down reagent: single siRNA against human genes, 20 nM siRNA (0.8 pmol per well)
Timing: 120 h (drug added 48 h after transfection, read 72 h later)
Challenge: camptothecin 20 nM (about EC30) for 72 h; vehicle 0.1% DMSO in parallel plates
Read-out: 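CellTiter-Glo ATP signal, scaled to control siRNA as percent viability; sensitisation given as log2 of untreated divided by camptothecin-treated viability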
Scale: log2 vehicle/camptothecin viability: higher = stronger sensitisation to camptothecin
Call rule: 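Each gene scored by redundant siRNA activity (RSA) over its individual siRNA ratios; a gene is called active at p < 0.001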

log2 vehicle/camptothecin viability, by gene symbol and reagent
CNTNAP1: #1 -0.22; #2 0.101; #3 0.646; #4 -0.48
RNFT1: #1 -0.0907; #2 -0.33; #3 -0.04; #4 -0.16
KLK3: #1 -0.12; #2 -0.0505; #3 1.39; #4 -0.321; #5 0.0437; #6 -0.236; #7 -0.245; #8 0.163
SLC4A9: #1 -0.517; #2 -0.297; #3 -0.561
GPR176: #1 -0.322; #2 -0.341; #3 -0.454; #4 -0.217
ACE: #1 -0.341; #2 -0.323; #3 -0.133; #4 -0.365
GPR75: #1 -0.149; #2 0.428; #3 -0.27; #4 -0.276
TAAR8: #1 -0.841; #2 0.324; #3 -0.0822; #4 -0.237
NKD1: #1 -0.241; #2 -0.341; #3 0.127
PHYH: #1 -0.108; #2 -0.261; #3 -0.285; #4 -0.174
LRP4: #1 0.0419; #2 -0.449; #3 -0.193; #4 -0.383
RPL38: #1 -0.629; #2 -0.485; #3 -0.24; #4 -0.704
DEDD2: #1 -0.289; #2 -0.0162; #3 0.0255; #4 0.134
PRDM11: #1 0.0644; #2 -0.796; #3 -0.463; #4 0.339
ACVR1C: #1 -0.159; #2 0.0574; #3 -0.122
FUCA1: #1 -0.141; #2 -0.291; #3 0.0422; #4 -0.12
ADAMTS7: #1 0.157; #2 -0.345; #3 -0.408

Reprinted from above (7 entries):
log2 vehicle/camptothecin viability, by gene symbol and reagent
KLK3: #4 -0.321; #5 0.0437; #6 -0.236; #7 -0.245; #8 0.163
SLC4A9: #1 -0.517; #2 -0.297
